{"source": "paper PMC7362394", "about": "(Bioorganic & medicinal chemistry letters, 2019)", "conditions": "pH 7.4", "data": [{"compound": "N=C(N)NC(=O)c1nc(-c2cc3ccccc3o2)c(N)nc1N", "note": "[Compound 15]", "values": [{"measurement": "gLogD7.4", "value": 2.8}]}]}
